PubChem BioAssay AID1159584, Peter MacCallum Cancer Centre, 2016

Purpose: 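Genes whose loss is lethal only together with E-cadherin loss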 (primary screen)
Cells: human MCF10A breast epithelial cells, parental and CDH1-null
Reagents: siRNA against human genes
Read-out: 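Cell viability by CellTiter-Glo ATP luminescence, each line scaled to the mean of mock wells across plates, then CDH1-null over parental ratio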
Direction: CDH1-null / parental viability ratio: higher = CDH1-null cells survive relatively better than parental
The deposit covers about 18,000 reagents; shown is a random part of them. Reagents against one gene are numbered here. Further read-outs or replicates are left out here. The record does not give: the amount of reagent, the time to read-out.

| Gene | reagent | CDH1-null / parental viability ratio |
| --- | --- | --- |
| LAMB2 | 1 | 1.24 |
| SLC41A1 | 1 | 0.67 |
| MRPL10 | 1 | 1.16 |
| ARK2C | 1 | 0.83 |
| ZNF70 | 1 | 0.77 |
| HKDC1 | 1 | 0.95 |
| MRM2 | 1 | 0.62 |
| SNX33 | 1 | 1.06 |
| UBTF | 1 | 1 |
| PASK | 1 | 0.75 |
| ACTR1A | 1 | 0.79 |
| EIF4A2 | 1 | 1.18 |
| LRRC23 | 1 | 0.75 |
| ATP13A1 | 1 | 0.91 |
| OLFML2A | 1 | 0.88 |
| TMX3 | 1 | 0.97 |
| RAN | 1 | 1.71 |
| MED10 | 1 | 1.49 |
| THAP8 | 1 | 0.9 |
| SCN3B | 1 | 1.22 |
| P2RY12 | 1 | 0.76 |
| ZNF582 | 1 | 1.11 |
| RNF111 | 1 | 0.87 |
| NR1D2 | 1 | 0.83 |
| ARL15 | 1 | 0.95 |
| KLHL4 | 1 | 0.95 |
| MORC3 | 1 | 1.04 |
| TRDMT1 | 1 | 0.99 |
| CERS1 | 1 | 1 |
| ZNF654 | 1 | 1.02 |
| ZNF607 | 1 | 0.92 |
| COMMD9 | 1 | 0.72 |
| COMMD9 | 2 | 0.92 |
| TPRKB | 1 | 0.95 |
| MPP3 | 1 | 0.72 |
| RASL10A | 1 | 0.88 |
| OR4A15 | 1 | 1.02 |
| PALS2 | 1 | 0.88 |
| SLCO1C1 | 1 | 1.07 |
| XAGE5 | 1 | 0.73 |
| MIA3 | 1 | 0.92 |
| ZAR1 | 1 | 1.11 |
| HSPA1A | 1 | 0.98 |
| PKNOX2 | 1 | 0.99 |
| IHO1 | 1 | 1.02 |
| SNORC | 1 | 1.5 |
| CYB5R4 | 1 | 1.1 |
| WIPF1 | 1 | 1.09 |
| QNG1 | 1 | 1.14 |
| PHC3 | 1 | 1.58 |
| RAB6B | 1 | 0.95 |
| WDSUB1 | 1 | 0.98 |
| SH3PXD2B | 1 | 0.91 |
| NPR1 | 1 | 0.82 |
| LINC03124 | 1 | 0.76 |
| MYO5C | 1 | 1.17 |
| RBM12B | 1 | 1 |
| NMUR1 | 1 | 0.79 |
| HSD17B4 | 1 | 0.97 |
| PRF1 | 1 | 0.79 |
| C1GALT1 | 1 | 0.89 |
| VGLL4 | 1 | 1.12 |
| ADCK2 | 1 | 1.3 |
| ROCK1 | 1 | 0.94 |
| KDM5B | 1 | 1 |
| KLHL14 | 1 | 1.19 |
| CIP2A | 1 | 1 |
| CCDC57 | 1 | 1.1 |
